These are yes or no findings as the source states them, for the method shown. Binding calls can cover weak binding; strength is not graded here.
Biological target: PfMSP3 on the surface of live P. falciparum 3D7 merozoites (P. falciparum 3D7 (endogenous in merozoites))
Assay: flow cytometry on cells; live 3D7 merozoites in 5% BSA/PBS at room temperature, incubated with purified human C1-INH (0,02 μg/μl), with or without pre-incubation with MP3.01 mAb (up to 50 μg/mL); bound C1-INH stained with a rabbit polyclonal antibody; only the binder purified

B1: human C1 esterase inhibitor (C1-INH) (protein, UniProt P05155 23-500)
chain: NPNATSSSSQDPESLQDRGEGKVATTVISKMLFVEPILEVSSLPTTNSTTNSATKITANTTDEPTTQPTTEPTTQPTIQPTQPTTQLPTDSPTQPTTGSFCPGPVTLCSDLESHSTEAVLGDALVDFSLKLYHAFSAMKKVETNMAFSPFSIASLLTQVLLGAGENTKTNLESILSYPKDFTCVHQALKGFTTKGVTSVSQIFHSPDLAIRDTFVNASRTLYSSSPRVLSNNSDANLELINTWVAKNTNNKISRLLDSLPSDTRLVLLNAIYLSAKWKTTFDPKKTRMEPFHFKNSVIKVPMMNSKKYPVAHFIDQTLKAKVGQLQLSHNLSLVILVPQNLKHRLEDMEQALSPSVFKAIMEKLEMSKFQPTLLTLPRIKVTTSQDMLSIMEKLEFFDFSYDLNLCGLTEDPDLQVSAMQHQTVLELTETGVEAAAASAISVARTLLVFEVQQPFLFVLWDQQHKFPVFMGRVYDPRA
  binding: binds

Reference: PMC12064020
